Some results were stated once for a whole list of compounds, not compound by compound.
Assay: Stability of 5′-32P-labeled AONs in human blood serum (PAGE autoradiography)
Assay type: in vitro ADME
Conditions: 21° C., followed up to 48 h
Protocol: FIG. 4. Autoradiograms of 20% denaturing PAGE showing degradation patterns of 5′-^32P-labeled AONs in human blood serum (Table 1 for all AON sequences). Inset A: AON 1 and LNA-modified AONs 2-5. Inset B: Carbocyclic-LNA-modified AONs 6-9. Inset C: Carbocyclic-ENA-modified AONs 10-13 and Inset D: aza-ENA-modified AONs 14-17. Time points are taken after 0, ½, 1 h, 2 h, 5 h, 7 h, 9 h, 12 h, for AONs 1-5 and 0 h, 6 h, 8 h, 12 h, 24 h, 36 h and 48 h of incubation for AONs 6-17 at 21° C. (see Experimental Section for details).
Modified sequences (Table 1), ^32P-labeled at 5′-ends, were digested in human blood serum at 21° C. as shown in the PAGE autoradiograms (Insets A, B, C and D in FIG. 4). In order to understand
AONs (6 μL) at 2 μM concentration (5′-end ^32P labeled with specific activity 80 000 cpm) were incubated in […] of human blood serum (male AB) at 21° C. (total reaction volume was 36 μL) and the experiments were repeated twice up to 48 h. Aliquots (3 μL) were taken at 0, 30 min, 1, 2, 5, 7, 8, 9, 12, 24, 36, 48 h and quenched with 7 μL of solution containing 8 M urea and 50 mM EDTA, resolved in 20% polyacrylamide denaturing (7 M urea) gel electrophoresis and visualized by autoradiography. […] Since no new prominent cleavage products were found toward the later time points, we considered those prominent stable initial fragments as 100% during the last time points (12-48 h).

| Substance | time the AON / residual fragment remains stable |
| --- | --- |
| 3′-d(CTTCTTTT(5-carbo)TTACTTC)-5′ (antisense CTTCTTTTTTACTTC; carbocyclic-LNA-T at position 8 from 3'-end, chemistry not fully specified) [AON 8, carbocyclic-LNA-T modified AON, position 8 from 3′-end] | more than 48 h |
| 3′-d(CTTCTTTTTT(6-carbo)ACTTC)-5′ [AON 13] | more than 48 h |
| 3′-d(CTTCTTTTTT(5-carbo)ACTTC)-5′ (antisense CTTCTTTTTTACTTC; carbocyclic-LNA-T at position 10 from 3'-end, chemistry not fully specified) [AON 9, carbocyclic-LNA-T modified AON, position 10 from 3′-end] | more than 48 h |
| 3′-d(CTTCTTTT(6-carbo)TTACTTC)-5′ [AON 12] | more than 48 h |
| 3′-d(CTT(aza-ENA)CTTTTTTACTTC)-5′ (antisense CTTCTTTTTTACTTC; aza-ENA-T at position 3 from 3'-end, chemistry not fully specified) [AON 14, aza-ENA-T modified AON, position 3 from 3′-end] | ≥ 48 h |
| 3′-d(CTTCTT(6-carbo)TTTTACTTC)-5′ [AON 11] | more than 48 h |
| 3′-d(CTTCTT(5-carbo)TTTTACTTC)-5′ (antisense CTTCTTTTTTACTTC; carbocyclic-LNA-T at position 6 from 3'-end, chemistry not fully specified) [AON 7, carbocyclic-LNA-T modified AON, position 6 from 3′-end] | more than 48 h |

From patent US8461124B2, “Five- and six-membered conformationally locked 2′,4′-carbocyclic ribo-thymidines for the treatment of infections and cancer” (priority 2007, dated 2013)
